Data: article PMC9418313, “Multivalent interactions between molecular components involved in fast endophilin mediated endocytosis drive protein phase separation” (Nature Communications, 2022)
Results are given in words; binding and its absence hold for the method and conditions named. Some binding calls cover weakened binding; strength is not graded here.

Amino acid sequences for entries named in this document (tags omitted). Residues count along the entry.
UniProt Q70E73, residues 850-1250: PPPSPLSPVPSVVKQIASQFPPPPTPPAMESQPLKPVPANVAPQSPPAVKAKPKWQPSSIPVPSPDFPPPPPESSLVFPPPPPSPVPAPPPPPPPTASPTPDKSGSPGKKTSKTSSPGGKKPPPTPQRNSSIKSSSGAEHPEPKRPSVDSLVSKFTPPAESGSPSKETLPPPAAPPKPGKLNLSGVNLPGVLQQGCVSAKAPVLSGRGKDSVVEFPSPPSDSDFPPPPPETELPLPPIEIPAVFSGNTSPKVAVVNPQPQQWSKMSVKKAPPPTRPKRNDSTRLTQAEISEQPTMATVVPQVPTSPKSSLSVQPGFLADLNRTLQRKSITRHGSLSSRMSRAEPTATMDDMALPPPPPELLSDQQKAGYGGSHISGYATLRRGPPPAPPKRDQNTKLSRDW
UniProt P08588, residues 246-325: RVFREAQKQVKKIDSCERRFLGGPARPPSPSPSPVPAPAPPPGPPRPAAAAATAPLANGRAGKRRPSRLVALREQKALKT
UniProt P50552: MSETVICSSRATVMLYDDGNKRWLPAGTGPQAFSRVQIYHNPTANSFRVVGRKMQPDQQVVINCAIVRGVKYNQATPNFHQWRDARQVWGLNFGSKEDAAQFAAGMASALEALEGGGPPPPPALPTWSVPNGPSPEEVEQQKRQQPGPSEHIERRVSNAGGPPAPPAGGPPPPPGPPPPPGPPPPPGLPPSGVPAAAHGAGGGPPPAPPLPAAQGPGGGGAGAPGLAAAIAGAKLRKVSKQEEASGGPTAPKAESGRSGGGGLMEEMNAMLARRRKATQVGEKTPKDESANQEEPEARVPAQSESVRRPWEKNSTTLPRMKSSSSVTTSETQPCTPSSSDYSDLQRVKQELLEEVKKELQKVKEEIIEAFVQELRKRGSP

Experiments:
[1] = target: lamellipodin C-terminal domain fragment LPD^850–1250 with C-terminal His6 tag (UniProt Q70E73); assay: clustering on supported lipid bilayers (confocal microscopy); TIL-His6 tethered together with LPD^850–1250-His6 or PRM7-His6 on DOPC/Ni2+-NTA lipid bilayers, no endophilin; both purified
[2] = target: lamellipodin C-terminal domain fragment LPD^850–1250 with C-terminal His6 tag (UniProt Q70E73); assay: liquid-liquid phase separation (droplets seen by microscopy); LPD mixed with VASP; conditions only in Supplementary Fig. 9b; both purified

Substance | binding [1] | binding [2]
TIL-His6 of the human β1-adrenergic receptor (from UniProt P08588 246-325) (domain or fragment) | binds | 
human VASP (wild type) (from UniProt P50552 1-380) |  | binds
